Results taken from PubChem BioAssay AID493014 (National Center for Advancing Translational Sciences (NCATS), 2011).
Hit rate of the full screen: of about 340,000 compounds, about 170 (0.05%) were called active. Inconclusive means that the source gave no clear call. Such entries were picked first, then a sample of the others. The call rests on the fitted dose curve; in most records, active means well fitted inhibition curve with a large enough effect in the signal ratio, with a control signal flat (not every such curve was filed as active); inconclusive means small, poorly fitted or top-dose-only effect, or effect the other way, or a change in a side signal; inactive means flat fitted curve, though single readings scatter; the % refers to the signal ratio. Potencies of inconclusive entries are doubtful fits and often do not repeat.

Experiment: qHTS Assay to Find Inhibitors of Chronic Active B-Cell Receptor Signaling;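 on activity change, negative = inhibition: plate controls were basal doxycycline-induced cells for no effect and cells given 10 µM MG132 for full effect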
Details: ABC-DLBCL IkBa-CBG/CBR reporter, luminescence ratio (green luciferase fused to IkBa over red control in TMD8 lymphoma cells), 4 h; activity change, negative = inhibition: at 46.1 µM (top of the series)
Procedure, shortened: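 Cell line TMD8 (human ABC DLBCL), stably expressing tet-inducible CBG68-IkBa fusion and CBR; IMDM/0.5% FBS; cpd up to 46 uM; dox induction, 4 h, 37C/5% CO2; dual luminescence; green/red ratio; MG132 control.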
Potency means the concentration at half of the fitted maximal effect.

Row | SMILES | activity change, negative = inhibition | Potency
1 | CN(C)CCCN(C(=O)c1cc2ccccc2oc1=O)c1nc2ccc(F)cc2s1 | inconclusive: -15.2% | 
2 | COc1cccc(N=Nc2ccc3cccnc3c2O)c1 | inactive | 
3 | COCCCNC(=O)CSc1nc2cc3c(cc2c(=O)n1CCCCCC(=O)NCCc1ccc(OC)c(OC)c1)OCO3 | inactive | 
4 | CC(/C=N/n1c(-c2n[nH]c3c2CCC3)n[nH]c1=S)=C\c1ccco1 | inconclusive: 7.47% | 
5 | Clc1cc(Cl)c2nc(N3CCOCC3)sc2c1 | inconclusive: 6.78% | 
6 | CC1CCc2nc(NC(=O)c3ccc(S(=O)(=O)N4CCCc5ccccc54)cc3)sc2C1 (centres undefined) | inactive | 
7 | Cc1ccc2sc(-c3ccc(NC(=O)/C=C\C(=O)O)cc3)nc2c1 | inconclusive: 16.7% | 
8 | COc1ccccc1CNCC(=O)NCc1ccc(C)cc1 | inactive | 
9 | N/C(=N\OC(=O)c1cccc2ccccc12)c1cccnc1 | inconclusive: 19.8% | 
10 | CCCCNC(=O)c1cc(-c2ccc(OC)c(OC)c2)on1 | inconclusive: -0.378% | 
11 | COC(=O)c1cc(NC(=S)NC(=O)c2ccccc2)ccc1N1CCOCC1 |  | inconclusive: 10 µM [falling, partial curve]
12 | Cc1cccc(CNc2ncnc3ccc(-c4cccnc4)cc23)c1 | inactive | 
13 | CCOc1ncccc1C(=O)NCCc1ccc(Cl)cc1 | inactive | 
14 | Cc1ccc2c(c1)[C@H]1[C@H](CO2)[C@H](c2ccccc2)[C@]2(C)C(=O)Nc3ccc(Br)cc3C(=O)N12 | inconclusive: 5.2% | 
15 | COc1ccc(NS(=O)(=O)c2ccc(C)c(C(=O)NCC(c3ccco3)N(C)C)c2)cc1 (centres undefined) | inactive | 
16 | COc1cccc(NCc2cc(=O)oc3cc(C)c(C(C)C)cc23)c1 |  | inconclusive: 28.2 µM [falling, single point]
17 | Cc1cc(C)nc(/N=C2\NC(=O)CC3C(=O)NCCN23)n1 (centres undefined) | inconclusive: 0.858% | 
18 | CC1CCN(c2nc(-c3cccnc3)nc3scc(-c4ccccc4)c23)CC1 | inconclusive: 8.62% | 
19 | COc1ccc(OCC(=O)Nc2ccccc2-c2ccccc2)cc1 | inactive | 
20 | CN(C)CCn1cnc2c(c1=N)C(c1ccccc1)c1ccc3ccccc3c1O2 (centres undefined) | inactive | 
21 | COc1ccc(CCNc2nc(-c3ccco3)cc(C(F)(F)F)n2)cc1OC | inconclusive: 5.55% | 

Row | SMILES | activity change, negative = inhibition | Potency
22 | O=C(c1ccccn1)N1CCN(S(=O)(=O)c2ccc3ccccc3c2)CC1 | inconclusive: 20.2% | 
23 | O=C(Nc1ncc(Cc2cccc(Cl)c2)s1)c1cccs1 | inconclusive: 6.14% | 
24 | COc1ccc2c(c1)cc(C(=O)O)n2C | inconclusive: -10.6% | 
25 | CN1/C(=C/C2CC(=O)N(c3cccc4ccccc34)C2=O)C(C)(C)c2ccccc21 (centres undefined) |  | inconclusive: 9.2 µM [falling, partial curve, poor fit]
26 | Cc1ccc(NC(=O)CSc2ccc(C(N)=O)cc2[N+](=O)[O-])cc1C | inactive | 
27 | CC1=NN(C2=NS(=O)(=O)c3ccccc32)C(C)(O)C1 (centres undefined) | inconclusive: 6.16% | 
28 | COC(=O)/C=c1\sc2n(c1=O)C(C)=CC(C)(C)N=2 | inconclusive: -6.05% | 
29 | COc1cc2c(cc1OC)C(Cc1ccc(O)cc1)NCC2 (centres undefined) |  | inconclusive: 23.1 µM [falling, single point]
30 | COc1cc(C(=O)Oc2cccc(/C=N/NC(=O)c3cccnc3)c2)cc(OC)c1OC |  | inconclusive: 35.5 µM [falling, single point]
31 | Clc1ccc(-c2nnc3c4ccccc4nc(N4CCOCC4)n23)cc1Cl | inconclusive: -6.6% | 
32 | Cc1nc([N+](=O)[O-])cn1-c1nc2ccccn2c1[N+](=O)[O-] | inactive | 
33 | Cc1cccc(Nc2ncnc(N)n2)c1 | inactive | 
34 | O=C1OC(c2ccc3c(c2)OCO3)N(C(=O)c2ccc(Cl)c(Cl)c2)c2ccccc21 (centres undefined) |  | inconclusive: 0.00461 µM [rising, full curve, poor fit]
35 | COc1cccc(C(=O)N/N=C(\C)c2cccc(NC(=O)c3ccc(F)cc3)c2)c1OC | inconclusive: -24.1% | 
36 | C=CCn1cccc(C(=O)Nc2ccc(C)c(C)c2)c1=O | inactive | 
37 | CC(C)(C)NC(=O)C(c1c[nH]c2ccccc12)N(C(=O)Cn1nnc(-c2ccc(F)cc2)n1)c1cccc(O)c1 (centres undefined) | inconclusive: -0.592% | 
38 | C=C(C)COc1ccc(-c2nc(N)ncc2-c2ccc(Cl)cc2)c(O)c1 | inconclusive: 0.576% | 
39 | O=C(O)c1cc(=O)n(Cc2ccccc2)c(=O)[nH]1 | inconclusive: 5.14% | 
40 | Cc1c(C(=O)N2CCCc3ccccc32)oc2ccc(S(=O)(=O)N3CCOCC3)cc12 | inactive | 
41 | O=C(O)c1cc([N+](=O)[O-])c(Sc2nc3ccccc3[nH]2)c([N+](=O)[O-])c1 | inactive | 
42 | CC1=C(C(=O)Nc2ccccn2)C(c2ccc(Br)cc2)NC(=S)N1 (centres undefined) | inconclusive: 2.73% | 

Already shown: entries from further up.
Row | SMILES | activity change, negative = inhibition | Potency
25 | CN1/C(=C/C2CC(=O)N(c3cccc4ccccc34)C2=O)C(C)(C)c2ccccc21 (centres undefined) |  | inconclusive: 9.2 µM [falling, partial curve, poor fit]
26 | Cc1ccc(NC(=O)CSc2ccc(C(N)=O)cc2[N+](=O)[O-])cc1C | inactive | 
27 | CC1=NN(C2=NS(=O)(=O)c3ccccc32)C(C)(O)C1 (centres undefined) | inconclusive: 6.16% | 
28 | COC(=O)/C=c1\sc2n(c1=O)C(C)=CC(C)(C)N=2 | inconclusive: -6.05% | 

Remaining list, next part:

Row | SMILES | activity change, negative = inhibition | Potency
43 | CS(=O)(=O)Nc1ccc(N2CCN(c3ccc(C(F)(F)F)cn3)CC2)nc1 | inconclusive: 10.2% | 
44 | Cc1ccc(NS(=O)(=O)c2cc(C(=O)Nc3cccc([N+](=O)[O-])c3)ccc2C)cc1 | inconclusive: 9.24% | 
45 | Cc1sc2ncnc(Sc3ccccc3C(=O)Nc3ccc(Br)cc3)c2c1C | inconclusive: -18.5% | 
46 | Cc1[nH]n(C(C)(C)C)c(=O)c1Sc1ccccc1 | inconclusive: -1.07% | 
47 | S=C(Nc1cccc(Cl)c1)Nc1cccc2cnccc12 | inconclusive: 14.3% | 
48 | NCCCn1c(C(=O)c2cc(Cl)c(N)c(Cl)c2)c2ccc(C(F)(F)F)cc2[n+]1[O-] |  | inconclusive: 23.1 µM [falling, partial curve]
49 | O=C(/C=C/c1ccccc1)/C=C/c1ccccc1 | inconclusive: 21.3% | 
50 | Cc1cc(C)n(-c2ccc(C(=O)Nc3ccc(S(=O)(=O)NCc4ccco4)cc3)cc2)n1 | inconclusive: -5.54% | 
51 | COc1ccc(Cl)cc1NC(=O)COC(=O)CCCN1C(=O)c2ccccc2C1=O |  | inconclusive: 2.59 µM [rising, full curve, poor fit]
52 | Cc1ccc(NC(=O)COc2ccccc2C(=O)NCc2ccccc2)cc1 | inconclusive: 6.86% | 
53 | COc1ccc(CC(=O)N2CCCC2)c(OC)c1 | inactive | 
54 | O=C(Oc1cccc2cccnc12)c1ccco1 |  | active: 23.1 µM
55 | COc1cc(NC(=O)c2[nH]cnc2C(N)=O)cc(C(=O)Nc2cccc(C(F)(F)F)c2)c1 | inconclusive: -0.413% | 
56 | O=C(Oc1ccccc1)c1cccc2cccnc12 |  | inconclusive: 29.1 µM [falling, single point]
57 | COc1ccc(CNC(=O)C[C@H]2C[C@H](C(=O)N(C(C)C)C(C)C)[C@@]3(C)c4[nH]c5cc(-c6ccco6)ccc5c4CCN3C2=O)cc1OC | inconclusive: -17.1% | 
58 | CN1CCN(C(=O)c2ccc(CNS(=O)(=O)c3ccc(F)c(Cl)c3)cc2)CC1 | inactive | 
59 | NC(=O)C1(C(N)=O)OC1c1ccc(Cl)c(Cl)c1 (centres undefined) | inconclusive: -1.62% | 
60 | CCOC(=O)C1CCCN(CC(=O)Nc2cc(C)cc(C)c2)C1 (centres undefined) | inactive | 
61 | N#C/C(=C(/O)COc1ccccc1)c1nc2ccccc2s1 |  | inconclusive: 7.94 µM [falling, partial curve]
62 | CNc1csc(C)c(C)c1=O |  | inconclusive: 3.55 µM [falling, partial curve, poor fit]
63 | Cc1ccc(NC(=O)C(c2ccccc2)c2ccccc2)c(O)c1 | inactive | 

Row | SMILES | activity change, negative = inhibition | Potency
64 | Cc1cc(NC(=S)NC(=O)c2ccccc2)ccc1-c1cc2ccccc2oc1=O | inconclusive: -2.81% | 
65 | O=C(Nc1ccc(Cl)c(C(F)(F)F)c1)c1ccco1 | inconclusive: -5.72% | 
66 | CCOc1ccccc1NC(=O)CSc1nnc(-c2ccncc2)o1 |  | inconclusive: 20.6 µM [falling, single point]
67 | CC[C@]1(c2ccccc2)C(=O)N(C(=O)OC)N1C(=O)OC | inactive | 
68 | Cc1ccc(SCC(=O)Nc2ccccc2C(=O)O)cc1 |  | inconclusive: 6.51 µM [falling, single point]
69 | c1ccc(-c2nnc(-c3ccco3)n2-c2ccccc2)cc1 | inactive | 
70 | COCc1c(C(=O)N2CCN(S(=O)(=O)c3ccccc3Cl)CC2)oc2ccccc12 | inconclusive: -0.628% | 
71 | CCCNC(=O)c1noc2c1CCc1ccccc1-2 |  | inconclusive: 20.6 µM [falling, single point]
72 | COc1ccccc1NC(=O)CN1CCCCCC1 |  | inconclusive: 35.5 µM [rising, single point]
73 | COC(=O)c1cccnc1-n1c(=O)c2cccnc2n(CC(=O)Nc2ccc(Br)cc2)c1=O | inconclusive: 7.65% | 
74 | Cc1ccc(-n2nc(N)c3c(=O)oc(N(C)C)nc32)cc1 | inconclusive: 19.8% | 
75 | CCOC(=O)Cc1cnc(NC(=O)CSc2nc(C)c(CC)c(=O)[nH]2)s1 |  | inconclusive: 17.8 µM [falling, single point]
76 | NC(=O)[C@H]1CC2(CC(c3cccc(NC(=O)[C@H]4CCC(=O)N4)c3)=NO2)CN1C(=O)c1cc([N+](=O)[O-])cc([N+](=O)[O-])c1 (some centres undefined) | inconclusive: 0.333% | 
77 | CC(Sc1nnnn1-c1ccccc1)C(=O)Nc1ccc(Cl)cn1 (centres undefined) | inconclusive: 12.1% | 
78 | CC1CCCN(S(=O)(=O)c2cnc[nH]2)C1 (centres undefined) | inactive | 
79 | CC1CCCCC1NC(=O)Cn1[nH]c(=O)c2ccccc2c1=O (centres undefined) | inconclusive: -61.3% | 
80 | COC12NC(=O)N(C)C1(OC)C(=O)N(C)C(=O)N2C (centres undefined) | inactive | 
81 | Cc1ccc(C(NC(=O)N2CCCC2)C(Cl)(Cl)Cl)cc1F (centres undefined) | inconclusive: 5.42% | 
82 | NC(=O)c1cc2ccccc2oc1=NCc1ccccc1 | inconclusive: -3.47% | 
83 | CCCCN(Cc1ccccc1)S(=O)(=O)c1ccc2[nH]c(=O)oc2c1 | inconclusive: 0% | 
84 | O=C(O)c1cc([N+](=O)[O-])ccc1NCCc1ccccc1 |  | inconclusive: 31.6 µM [falling, partial curve]
